Experimental data from ChEMBL document CHEMBL4602682, “Ikoamide, an Antimalarial Lipopeptide from an Okeania sp. Marine Cyanobacterium” (J Nat Prod, 2020).

Tested on: HeLa
Assay: Cytotoxicity against human HeLa cells incubated for 72 hrs by MTT assay
Format: ADME, cell-based

## COc1cccc2c1C(=O)c1c(O)c3c(c(O)c1C2=O)C[C@@](O)(C(=O)CO)C[C@@H]3O[C@H]1C[C@H](N)[C@H](O)[C@H](C)O1 [DOXORUBICIN]
  IC50: 240 nM
